Test [1] addresses APOBEC3G with C-terminal triple HA tag (pcDNA3.1-APOBEC3G-HA) (human) (UniProt Q9HC16). The experiment in a line: co-IP; 293T cells co-transfected; 400 ug of cell lysate on anti-HA magnetic beads with RNaseA (50 ug/mL), 2 h at 4 C; co-IP buffer 50 mM Tris-Cl pH 7.4, 1% Nonidet-P40, 10% glycerol, 150 mM NaCl; immunoblot with anti-HA and anti-V5 or anti-Flag; band intensities normalised to the immunoprecipitated protein, full-length protein set to 100%. Background: Immunoblotting shows a protein as a band on a membrane.

The chains behind the UniProt entries cited, without tags or fusion partners. Where a name states a change or a piece, a line headed by the entry shows the natural chain unless it says otherwise.
UniProt Q9HC16: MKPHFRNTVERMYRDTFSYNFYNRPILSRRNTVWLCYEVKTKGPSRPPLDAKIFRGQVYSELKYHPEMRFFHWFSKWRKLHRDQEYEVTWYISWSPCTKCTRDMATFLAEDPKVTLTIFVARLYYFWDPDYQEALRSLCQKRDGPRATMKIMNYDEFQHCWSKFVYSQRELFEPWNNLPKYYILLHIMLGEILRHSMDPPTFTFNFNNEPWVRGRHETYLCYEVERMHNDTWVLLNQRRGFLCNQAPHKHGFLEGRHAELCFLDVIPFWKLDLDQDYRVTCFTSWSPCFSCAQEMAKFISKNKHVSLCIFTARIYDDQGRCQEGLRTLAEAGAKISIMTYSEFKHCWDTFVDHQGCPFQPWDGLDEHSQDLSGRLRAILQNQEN
UniProt Q8IUX4: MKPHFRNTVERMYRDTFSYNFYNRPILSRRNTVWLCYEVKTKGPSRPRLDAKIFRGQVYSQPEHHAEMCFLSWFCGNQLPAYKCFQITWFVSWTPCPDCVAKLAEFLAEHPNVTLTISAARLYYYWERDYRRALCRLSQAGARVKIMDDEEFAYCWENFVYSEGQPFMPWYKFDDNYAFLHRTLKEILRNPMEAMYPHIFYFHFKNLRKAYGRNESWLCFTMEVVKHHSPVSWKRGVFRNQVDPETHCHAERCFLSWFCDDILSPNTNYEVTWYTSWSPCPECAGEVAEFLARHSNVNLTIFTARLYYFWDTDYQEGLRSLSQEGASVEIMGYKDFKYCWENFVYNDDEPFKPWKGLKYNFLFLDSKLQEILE

Test [2] deals with APOBEC3F-HA (pcDNA3.1 A3F-HA) (human) (UniProt Q8IUX4). Described as above.

No constants are given. Whether binding was seen depends on the method and setting. Binding seen in cells or lysates may run through a third protein. Some entries that bind do so weakly or less than the wild type.

For “APOBEC3F-V5 (pVIVO2 A3F-V5) (from UniProt Q8IUX4 1-373) (enzyme)”, the binding entry in test [1] is “binds”.

Regarding “APOBEC3G, Flag-tagged (pcDNA3.1 A3G-Flag) (from UniProt Q9HC16 1-384) (enzyme)”, the binding result in test [2] was “binds”.

The values are drawn from PMC11784016.
